Measurements reported in patent publication US20200000752A1, “Method for Treating Epilepsy” (Vanderbilt University, priority 2016, published 2020).
At least one structure is not confirmed: it was looked up by name or label, or the drawing left a doubt.

Test system: PI3K/AKT pathway
Assay: PI3K/AKT pathway activation in vitro
Type: cell-based

## COc1cc(/C=C/C(=O)CC(=O)/C=C/c2ccc(O)c(OC)c2)ccc1O [curcumin, reference compound]
  PI3K/AKT pathway: activate PI3K/AKT pathway
